In paper PMC6265327:

How the values were obtained:
[1] = system: CMG helicase (Cdc45-MCM-GINS) + Pol epsilon exo-; test: cryo-EM structure (4.9 A); conditions: ATPgS, 10 mM Mg(OAc)2; 5' desthiobiotin-TEG on strand 1; recombinant protein; protein details: FLAG,CBP; label: 5' desthiobiotin-TEG
[2] = system: CMG helicase (Cdc45-MCM-GINS) + Pol epsilon exo-; test: pull-down (desthiobiotin fork on streptavidin beads); conditions: 2 mM ATPgS, 10 mM Mg(OAc)2, 5' desthiobiotin-TEG on strand 1, pull-down: 25 mM HEPES 7.6, 100 mM KOAc, 10 mM Mg(OAc)2, 10% glycerol, 0.01% NP-40, 1 mM DTT, 30 C, recombinant protein, protein details: FLAG,CBP, label: 5' desthiobiotin-TEG

**Q.** Which results are given for “GCAGCCACGCTGGCCGTTTTACAACGTCGTGACTGGGCACTTGATCGGCCAACCTTTTTTTTTTTTTTTTTTTTTTTTTTTTTTTTTTTTTTTT / GGCAGGCAGGCAGGCAGGCAGGCCGTGCGCGTGGTCGTGCGGTTGGCCGATCAAGTGCCCAGTCACGACGTTGTAAAACGGCCAGCGTGGCTGC [Model fork DNA (leading/lagging-strand templates)]”?
**A.** binding result [1]: binds; binding result [2]: binds

Construct, isoform or probe ends are uncertain for at least one entry.
